Assay results as given in the supplement of paper PMC10849652.
The list shows a part of the results.

Sequences of proteins named here, by UniProt entry; tags and fusion partners are left off. A change or cut given only in a name is not applied to a line headed by its entry.
UniProt L0R6Q1: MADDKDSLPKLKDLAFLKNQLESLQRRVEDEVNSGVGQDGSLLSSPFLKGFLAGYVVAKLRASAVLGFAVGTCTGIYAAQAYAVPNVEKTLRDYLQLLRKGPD
UniProt O75746: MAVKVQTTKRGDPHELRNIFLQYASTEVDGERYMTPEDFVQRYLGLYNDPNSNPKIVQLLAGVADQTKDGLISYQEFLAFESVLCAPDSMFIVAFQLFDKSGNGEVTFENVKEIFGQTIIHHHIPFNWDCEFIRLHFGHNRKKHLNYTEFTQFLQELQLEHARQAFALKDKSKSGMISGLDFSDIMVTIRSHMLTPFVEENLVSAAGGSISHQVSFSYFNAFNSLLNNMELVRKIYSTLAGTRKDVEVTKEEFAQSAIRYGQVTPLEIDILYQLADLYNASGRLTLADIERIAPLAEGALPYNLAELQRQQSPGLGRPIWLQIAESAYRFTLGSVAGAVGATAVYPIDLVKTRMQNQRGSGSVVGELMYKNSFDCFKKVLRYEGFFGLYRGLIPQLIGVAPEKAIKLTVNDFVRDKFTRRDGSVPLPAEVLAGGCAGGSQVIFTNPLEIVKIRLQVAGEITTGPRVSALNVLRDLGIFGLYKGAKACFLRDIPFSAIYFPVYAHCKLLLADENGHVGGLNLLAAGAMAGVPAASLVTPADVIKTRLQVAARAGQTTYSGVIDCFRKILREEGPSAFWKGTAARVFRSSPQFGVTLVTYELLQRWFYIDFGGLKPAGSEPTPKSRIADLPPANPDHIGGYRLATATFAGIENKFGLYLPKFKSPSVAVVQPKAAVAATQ
UniProt Q9UBX3: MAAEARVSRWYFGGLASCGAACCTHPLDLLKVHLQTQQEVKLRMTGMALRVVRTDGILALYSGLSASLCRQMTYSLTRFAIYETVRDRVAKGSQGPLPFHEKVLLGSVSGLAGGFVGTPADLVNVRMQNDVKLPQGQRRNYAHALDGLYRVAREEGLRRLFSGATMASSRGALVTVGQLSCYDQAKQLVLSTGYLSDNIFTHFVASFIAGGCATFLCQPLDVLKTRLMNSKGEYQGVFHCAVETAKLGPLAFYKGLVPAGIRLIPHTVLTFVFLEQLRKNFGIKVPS
UniProt P11166: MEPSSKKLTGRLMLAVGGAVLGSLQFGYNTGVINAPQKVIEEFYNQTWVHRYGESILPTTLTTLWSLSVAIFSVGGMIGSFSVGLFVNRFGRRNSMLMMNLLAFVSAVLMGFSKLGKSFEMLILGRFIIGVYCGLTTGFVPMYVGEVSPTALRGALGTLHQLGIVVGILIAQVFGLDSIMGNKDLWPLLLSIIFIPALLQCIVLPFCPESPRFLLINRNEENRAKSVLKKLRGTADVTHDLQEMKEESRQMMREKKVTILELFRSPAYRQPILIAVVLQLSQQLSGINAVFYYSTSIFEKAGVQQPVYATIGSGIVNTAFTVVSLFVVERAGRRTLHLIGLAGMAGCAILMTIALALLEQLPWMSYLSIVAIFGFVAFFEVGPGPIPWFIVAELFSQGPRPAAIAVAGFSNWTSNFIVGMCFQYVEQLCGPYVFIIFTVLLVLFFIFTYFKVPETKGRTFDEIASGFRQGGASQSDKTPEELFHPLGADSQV
UniProt P02730: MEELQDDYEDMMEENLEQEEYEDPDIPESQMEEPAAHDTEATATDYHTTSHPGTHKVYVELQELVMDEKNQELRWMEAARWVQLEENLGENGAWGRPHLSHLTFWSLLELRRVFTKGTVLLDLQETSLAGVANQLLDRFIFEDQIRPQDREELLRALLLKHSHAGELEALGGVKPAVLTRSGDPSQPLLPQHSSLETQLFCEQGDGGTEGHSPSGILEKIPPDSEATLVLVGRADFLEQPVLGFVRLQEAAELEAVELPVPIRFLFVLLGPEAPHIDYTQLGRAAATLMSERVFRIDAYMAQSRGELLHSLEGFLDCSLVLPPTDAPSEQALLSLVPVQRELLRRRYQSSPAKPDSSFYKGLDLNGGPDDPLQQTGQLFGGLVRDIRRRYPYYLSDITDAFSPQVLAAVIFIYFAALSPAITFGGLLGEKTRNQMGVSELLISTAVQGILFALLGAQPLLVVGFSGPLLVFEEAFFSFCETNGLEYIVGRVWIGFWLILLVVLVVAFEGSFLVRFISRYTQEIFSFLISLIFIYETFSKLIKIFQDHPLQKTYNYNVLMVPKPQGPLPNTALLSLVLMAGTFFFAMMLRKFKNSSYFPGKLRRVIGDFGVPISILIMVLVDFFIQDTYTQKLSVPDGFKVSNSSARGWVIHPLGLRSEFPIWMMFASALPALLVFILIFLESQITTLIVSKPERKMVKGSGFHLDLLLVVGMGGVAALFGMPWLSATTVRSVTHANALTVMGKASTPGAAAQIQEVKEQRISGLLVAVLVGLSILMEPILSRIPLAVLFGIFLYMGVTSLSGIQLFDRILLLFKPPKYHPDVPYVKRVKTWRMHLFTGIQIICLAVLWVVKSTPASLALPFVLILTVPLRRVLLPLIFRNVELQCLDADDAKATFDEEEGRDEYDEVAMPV
UniProt Q9BSK2: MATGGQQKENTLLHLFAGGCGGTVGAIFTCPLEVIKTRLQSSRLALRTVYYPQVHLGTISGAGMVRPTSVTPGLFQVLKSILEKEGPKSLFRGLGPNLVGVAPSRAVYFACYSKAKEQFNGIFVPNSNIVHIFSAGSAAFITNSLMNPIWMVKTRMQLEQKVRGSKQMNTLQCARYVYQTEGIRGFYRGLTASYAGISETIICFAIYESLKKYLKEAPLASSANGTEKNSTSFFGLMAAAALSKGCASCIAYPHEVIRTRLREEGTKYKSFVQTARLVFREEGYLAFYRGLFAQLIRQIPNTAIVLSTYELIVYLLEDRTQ
UniProt Q01650: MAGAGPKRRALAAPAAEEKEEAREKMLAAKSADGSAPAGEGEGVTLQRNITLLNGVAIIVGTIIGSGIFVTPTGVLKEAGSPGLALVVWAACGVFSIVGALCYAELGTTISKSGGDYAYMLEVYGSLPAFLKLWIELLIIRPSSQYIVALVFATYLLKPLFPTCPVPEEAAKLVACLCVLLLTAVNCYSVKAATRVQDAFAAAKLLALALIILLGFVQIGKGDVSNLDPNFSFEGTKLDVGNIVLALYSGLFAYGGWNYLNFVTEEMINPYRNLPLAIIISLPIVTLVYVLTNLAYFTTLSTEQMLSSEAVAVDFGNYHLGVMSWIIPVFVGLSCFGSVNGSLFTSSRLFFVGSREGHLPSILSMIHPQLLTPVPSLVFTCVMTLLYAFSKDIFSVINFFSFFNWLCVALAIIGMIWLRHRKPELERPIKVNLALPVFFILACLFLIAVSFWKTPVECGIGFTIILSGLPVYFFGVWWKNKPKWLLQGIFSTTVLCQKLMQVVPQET
UniProt Q9HC21: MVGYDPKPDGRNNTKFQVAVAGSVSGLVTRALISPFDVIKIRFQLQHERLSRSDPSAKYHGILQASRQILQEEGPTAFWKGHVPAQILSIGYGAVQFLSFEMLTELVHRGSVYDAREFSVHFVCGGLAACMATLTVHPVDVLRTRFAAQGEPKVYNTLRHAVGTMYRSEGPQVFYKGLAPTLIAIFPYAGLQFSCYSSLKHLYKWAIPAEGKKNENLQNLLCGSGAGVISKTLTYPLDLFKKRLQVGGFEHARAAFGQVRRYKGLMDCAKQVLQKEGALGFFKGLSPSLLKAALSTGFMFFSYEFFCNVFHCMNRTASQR
UniProt Q8TBP6: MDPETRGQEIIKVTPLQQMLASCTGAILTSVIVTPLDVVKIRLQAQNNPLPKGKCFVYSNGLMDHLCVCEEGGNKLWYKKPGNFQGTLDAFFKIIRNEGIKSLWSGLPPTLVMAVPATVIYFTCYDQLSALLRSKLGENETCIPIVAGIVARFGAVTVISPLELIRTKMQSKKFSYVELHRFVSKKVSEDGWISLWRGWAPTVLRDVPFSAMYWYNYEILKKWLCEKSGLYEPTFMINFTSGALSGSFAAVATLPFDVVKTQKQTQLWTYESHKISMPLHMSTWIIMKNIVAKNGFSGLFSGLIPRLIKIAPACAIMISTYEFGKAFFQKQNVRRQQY
UniProt P53794: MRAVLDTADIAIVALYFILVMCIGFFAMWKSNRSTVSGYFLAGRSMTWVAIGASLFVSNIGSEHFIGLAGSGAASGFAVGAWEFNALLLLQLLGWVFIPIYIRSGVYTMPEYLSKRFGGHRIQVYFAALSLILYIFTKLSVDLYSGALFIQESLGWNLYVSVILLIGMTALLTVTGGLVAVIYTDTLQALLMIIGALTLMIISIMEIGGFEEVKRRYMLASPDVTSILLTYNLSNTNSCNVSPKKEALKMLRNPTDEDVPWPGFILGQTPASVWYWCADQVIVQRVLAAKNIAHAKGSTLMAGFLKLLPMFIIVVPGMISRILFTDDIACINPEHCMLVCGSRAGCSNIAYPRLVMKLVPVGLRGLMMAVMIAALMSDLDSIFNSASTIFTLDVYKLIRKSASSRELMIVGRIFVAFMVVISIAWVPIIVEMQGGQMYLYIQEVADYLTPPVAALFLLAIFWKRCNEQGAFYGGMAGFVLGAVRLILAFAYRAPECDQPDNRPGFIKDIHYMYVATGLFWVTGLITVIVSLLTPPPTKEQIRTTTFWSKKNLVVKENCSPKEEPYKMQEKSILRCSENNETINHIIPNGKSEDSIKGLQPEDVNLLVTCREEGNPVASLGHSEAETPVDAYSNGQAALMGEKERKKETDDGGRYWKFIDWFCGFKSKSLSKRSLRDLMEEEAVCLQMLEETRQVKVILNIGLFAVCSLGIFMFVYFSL
UniProt Q6KCM7: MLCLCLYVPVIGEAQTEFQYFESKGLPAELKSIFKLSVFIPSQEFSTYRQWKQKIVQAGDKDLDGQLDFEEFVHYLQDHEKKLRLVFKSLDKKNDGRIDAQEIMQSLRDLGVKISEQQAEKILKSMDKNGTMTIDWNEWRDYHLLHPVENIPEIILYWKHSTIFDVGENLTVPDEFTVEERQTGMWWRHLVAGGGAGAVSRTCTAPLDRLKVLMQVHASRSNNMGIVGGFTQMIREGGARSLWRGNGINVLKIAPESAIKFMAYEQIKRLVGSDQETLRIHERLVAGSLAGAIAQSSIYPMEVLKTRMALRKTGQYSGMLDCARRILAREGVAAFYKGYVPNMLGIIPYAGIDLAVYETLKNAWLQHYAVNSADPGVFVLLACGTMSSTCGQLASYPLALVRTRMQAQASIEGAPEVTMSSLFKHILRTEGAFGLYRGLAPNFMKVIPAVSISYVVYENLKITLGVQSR
UniProt Q9UPY5: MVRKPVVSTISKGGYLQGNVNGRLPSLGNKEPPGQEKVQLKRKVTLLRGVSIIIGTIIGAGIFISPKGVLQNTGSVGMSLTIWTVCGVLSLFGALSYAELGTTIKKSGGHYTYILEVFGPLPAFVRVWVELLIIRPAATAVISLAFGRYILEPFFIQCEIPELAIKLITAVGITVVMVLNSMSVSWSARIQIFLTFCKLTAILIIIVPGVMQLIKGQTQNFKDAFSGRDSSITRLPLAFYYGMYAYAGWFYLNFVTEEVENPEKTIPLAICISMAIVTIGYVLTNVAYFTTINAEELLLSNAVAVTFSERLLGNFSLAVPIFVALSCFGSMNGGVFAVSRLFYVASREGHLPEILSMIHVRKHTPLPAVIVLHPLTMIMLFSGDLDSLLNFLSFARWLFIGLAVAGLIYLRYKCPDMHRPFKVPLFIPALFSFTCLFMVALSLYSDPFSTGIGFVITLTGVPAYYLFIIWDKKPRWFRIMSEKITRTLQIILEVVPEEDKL
UniProt Q9ULF5: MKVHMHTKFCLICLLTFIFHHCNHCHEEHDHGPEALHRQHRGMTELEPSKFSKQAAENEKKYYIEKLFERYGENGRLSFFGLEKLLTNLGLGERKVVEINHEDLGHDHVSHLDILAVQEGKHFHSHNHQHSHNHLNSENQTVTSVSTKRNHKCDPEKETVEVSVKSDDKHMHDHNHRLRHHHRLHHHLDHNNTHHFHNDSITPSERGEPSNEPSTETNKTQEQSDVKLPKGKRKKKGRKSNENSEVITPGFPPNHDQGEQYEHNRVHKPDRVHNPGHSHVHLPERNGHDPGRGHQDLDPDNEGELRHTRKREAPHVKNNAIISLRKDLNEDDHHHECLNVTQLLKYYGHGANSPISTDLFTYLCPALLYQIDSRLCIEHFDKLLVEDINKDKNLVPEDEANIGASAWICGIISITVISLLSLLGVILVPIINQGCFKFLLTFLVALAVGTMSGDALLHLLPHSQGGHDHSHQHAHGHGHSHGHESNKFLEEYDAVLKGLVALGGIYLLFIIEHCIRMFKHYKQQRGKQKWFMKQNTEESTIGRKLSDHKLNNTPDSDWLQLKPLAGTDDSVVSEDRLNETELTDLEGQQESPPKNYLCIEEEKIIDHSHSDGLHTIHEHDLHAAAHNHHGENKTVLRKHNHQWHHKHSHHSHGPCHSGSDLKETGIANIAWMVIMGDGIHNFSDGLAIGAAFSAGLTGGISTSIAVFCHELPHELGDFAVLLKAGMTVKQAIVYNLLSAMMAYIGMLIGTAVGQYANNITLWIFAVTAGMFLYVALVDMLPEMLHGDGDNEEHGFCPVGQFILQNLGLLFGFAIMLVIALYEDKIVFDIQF

What was measured:
Experiment in all cases: log2 fold change, soluble protein after heating vs DMSO (PISA); higher = thermal stabilisation; K562 cells, 10 uM, 30 min; active = over 0.2 and 3.5 SD of the protein, either way, in both replicates (recomputed)
[1] = compound: CC1=C(C=C(C=C1)NC(=O)C2=CC(=CC=C2)C(C)(C)C#N)NC3=CC4=C(C=C3)N=CN(C4=O)C
How it was run: (§1)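 Aliquots of K562 cells (2×10^6 cells/mL) treated with 10 μM compound for 30 min were heated for 3 min over 48°C-58°C. After pooling and extraction in PBS with 0.5% NP-40 at 4°C, soluble protein from a 21,000xg, 90 min spin was quantified by TMTpro 16plex LC-MS/MS with channel sums equalised. Thermal stability is expressed against control samples, from duplicates, as a log2 fold change.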

[2] = compound: CC1=C(C=C(C=C1)NC(=O)C2=CC(=CC=C2)N(C)C)NC(=O)C3=CC=C(C=C3)O
How it was run: as §1

[3] = compound: CC1=CC=C(C=C1)SC2=C3C=C(SC3=CN=C2)C(=O)N
How it was run: as §1

[4] = compound: CC1=NC(=CC=C1)C2=C(N=C(N2)C(C)(C)C)C3=CC4=NC=CN=C4C=C3
How it was run: as §1

[5] = compound: CCCCN(Cc1ccc(C(=O)NO)cc1)C(=O)Nc1ccccc1 [Nexturastat A]
How it was run: as §1

[6] = compound: CCCS(=O)(=O)Nc1ccc(F)c(C(=O)c2c[nH]c3ncc(-c4ccc(Cl)cc4)cc23)c1F [vemurafenib]
How it was run: as §1

[7] = compound: CCCS(=O)(=O)Nc1ccc(F)c(C(=O)c2c[nH]c3ncc(Cl)cc23)c1F
How it was run: as §1

[8] = compound: CCCc1cc(C)[nH]c(=O)c1CNC(=O)c1cc(-c2ccnc(N3CCN(C)CC3)c2)cc2c1cnn2C(C)C
How it was run: as §1

[9] = compound: CCN(CC)Cc1ccc2cc(COC(=O)Nc3ccc(C(=O)NO)cc3)ccc2c1 [givinostat]
How it was run: as §1

[10] = compound: CCN(CCCOc1ccc2c(Nc3cc(CC(=O)Nc4cccc(F)c4)[nH]n3)ncnc2c1)CCOP(=O)(O)O [barasertib]
How it was run: as §1

[11] = compound: CC[C@@H]1C(=O)N(C)c2cnc(Nc3ccc(C(=O)NC4CCN(C)CC4)cc3OC)nc2N1C1CCCC1
How it was run: as §1

[12] = compound: CC[C@@H]1C(=O)N(C)c2cnc(Nc3ccc(C(=O)N[C@H]4CC[C@H](N5CCN(CC6CC6)CC5)CC4)cc3OC)nc2N1C(C)C [volasertib]
How it was run: as §1

[13] = compound: CC[C@H](C)N1C=C(C2=C(C=C(C=C21)C3=CN=C(C=C3)N4CCNCC4)C(=O)NCC5=C(C=C(NC5=O)C)C)C
How it was run: as §1

[14] = compound: CC[C@H](C)[C@@H](C(=O)N[C@@H]([C@@H](C)O)C(=O)N[C@@H](CC(C)C)C(=O)[C@]1(CO1)C)NC(=O)[C@H]([C@@H](C)CC)N(C)C(=O)C [epoxomicin]
How it was run: as §1

[15] = compound: CCn1c(C(=O)N(C2CC2)C2CC2)cc2c3c(ncn3C)c(Nc3cc(C)n(C)n3)nc21
How it was run: as §1

[16] = compound: CCn1cc(-c2ccnc3[nH]c(-c4cccc(CN(C)C)c4)cc23)c(-c2ccc(NC(=O)N(C)C)cc2)n1
How it was run: as §1

[17] = compound: CN(C)CC(=O)Nc1ccc2[nH]c(=O)c3ccccc3c2c1
How it was run: as §1

[18] = compound: CN(CCOC1=CC=C(C=C1)C[C@H]2C(=O)NC(=O)S2)C3=CC=CC=N3 (racemic) [rosiglitazone]
How it was run: as §1

[19] = compound: CN1C2=C(C3=C1C(=O)N(N=C3)CC4=CC(=CC=C4)N)SC(=C2)S(=O)C
How it was run: as §1

[20] = compound: CN1CCC(CNc2ccc3ncc(-c4cccc(OC(F)(F)F)c4)n3n2)CC1
How it was run: as §1

Measured: log2 fold change

SLC35A4 (UniProt L0R6Q1)
inactive: [1] 0.017 | [2] -0.092 | [3] 0.017 | [4] 0.034 | [5] 0.033 | [6] 0.01 | [7] 0.03 | [8] -0.134 | [9] -0.041 | [10] 0.079 | [11] 0.064 | [12] -0.08 | [13] -0.075 | [14] -0.009 | [15] 0.025 | [16] 0.096 | [17] 0.019 | [18] -0.051 | [19] 0.02 | [20] 0.21

SLC43A1 (UniProt O75387)
inactive: [1] -0.042 | [2] -0.036 | [3] 0.009 | [4] -0.018 | [5] -0.168 | [6] 0.074 | [7] 0.01 | [8] -0.04 | [9] -0.039 | [10] 0.026 | [11] 0.025 | [12] -0.006 | [13] 0.024 | [14] -0.011 | [15] 0.062 | [16] -0.059 | [17] 0.015 | [18] 0.004 | [19] -0.159 | [20] 0.062

SLC25A12 (UniProt O75746)
inactive: [1] -0.022 | [2] 0.02 | [3] 0.022 | [4] 0.005 | [5] -0.034 | [6] -0.024 | [7] -0.031 | [8] 0.008 | [9] -0.014 | [10] -0.003 | [11] 0.011 | [12] 0.033 | [13] -0.034 | [14] -0.004 | [15] 0.011 | [16] 0.001 | [17] -0.027 | [18] 0.003 | [19] -0.022 | [20] 0.003

SLC25A10 isoform 2 (UniProt Q9UBX3)
inactive: [1] 0.021 | [2] 0.044 | [3] 0.007 | [4] 0.044 | [5] -0.006 | [6] -0.015 | [7] 0.005 | [8] -0.041 | [9] 0.022 | [10] -0.022 | [11] 0.007 | [12] 0.053 | [13] -0.054 | [14] -0.009 | [15] 0.02 | [16] -0.038 | [17] 0.007 | [18] -0.001 | [19] -0.016 | [20] 0.133

SLC2A1 (UniProt P11166)
inactive: [1] -0.008 | [2] 0.017 | [3] 0.02 | [4] -0.017 | [5] -0.125 | [6] 0.016 | [7] -0.033 | [8] 0.002 | [9] -0.007 | [10] -0.022 | [11] 0.081 | [12] 0.126 | [13] -0.049 | [14] -0.015 | [15] -0.001 | [16] 0.001 | [17] 0.005 | [18] -0.006 | [19] 0.018 | [20] 0.14

SLC20A1 (UniProt Q8WUM9)
inactive: [1] -0.052 | [2] -0.009 | [3] -0.004 | [4] -0.092 | [5] -0.022 | [6] -0.079 | [7] -0.053 | [8] -0.087 | [9] -0.015 | [10] 0.001 | [11] 0.067 | [12] 0.009 | [13] -0.054 | [14] 0.012 | [15] 0.018 | [16] -0.003 | [17] 0.002 | [18] -0.018 | [19] 0.049 | [20] 0.048

SLC4A1 (UniProt P02730)
inactive: [1] 0.014 | [2] 0.071 | [3] -0.108 | [4] -0.01 | [5] -0.019 | [6] -0.103 | [7] -0.098 | [8] -0.051 | [9] -0.03 | [10] 0.046 | [11] 0.01 | [12] -0.098 | [13] -0.153 | [14] 0.004 | [15] 0.011 | [16] -0.051 | [17] -0.003 | [18] -0.082 | [19] -0.075 | [20] 0.095

SLC25A33 (UniProt Q9BSK2)
inactive: [1] 0.039 | [2] -0.024 | [3] 0.059 | [4] 0.013 | [5] -0.116 | [6] -0.006 | [7] 0.007 | [8] -0.058 | [9] 0.042 | [10] -0.023 | [11] -0.021 | [12] 0.014 | [13] -0.063 | [14] 0.047 | [15] 0.047 | [16] -0.036 | [17] -0.043 | [18] -0.025 | [19] 0.016 | [20] 0.187

Two entries drawn at random from those above:
SLC25A10 isoform 2 (UniProt Q9UBX3)
inactive: [1] 0.021 | [2] 0.044 | [3] 0.007 | [4] 0.044 | [5] -0.006 | [6] -0.015 | [7] 0.005 | [8] -0.041 | [9] 0.022 | [10] -0.022 | [11] 0.007 | [12] 0.053 | [13] -0.054 | [14] -0.009 | [15] 0.02 | [16] -0.038 | [17] 0.007 | [18] -0.001 | [19] -0.016 | [20] 0.133

SLC2A1 (UniProt P11166)
inactive: [1] -0.008 | [2] 0.017 | [3] 0.02 | [4] -0.017 | [5] -0.125 | [6] 0.016 | [7] -0.033 | [8] 0.002 | [9] -0.007 | [10] -0.022 | [11] 0.081 | [12] 0.126 | [13] -0.049 | [14] -0.015 | [15] -0.001 | [16] 0.001 | [17] 0.005 | [18] -0.006 | [19] 0.018 | [20] 0.14

The list continues:

SLC7A5 (UniProt Q01650)
inactive: [1] 0.183 | [2] -0.016 | [3] -0.006 | [4] 0.037 | [5] 0.047 | [6] 0.054 | [7] 0.028 | [8] -0.096 | [9] 0.028 | [10] -0.033 | [11] 0.043 | [12] -0.102 | [13] -0.105 | [14] -0.11 | [15] 0.029 | [16] -0.026 | [17] 0.018 | [18] 0.032 | [19] -0.136 | [20] 0.153

SLC25A19 (UniProt Q9HC21)
inactive: [1] -0.023 | [2] 0.025 | [3] -0.001 | [4] 0 | [5] -0.042 | [6] -0.029 | [7] -0.006 | [8] -0.058 | [9] -0.016 | [10] -0.028 | [11] 0.04 | [12] 0.042 | [13] -0.028 | [14] -0.006 | [15] 0.04 | [16] -0.017 | [17] -0.028 | [18] 0.008 | [19] -0.042 | [20] 0.053

SLC25A40 (UniProt Q8TBP6)
inactive: [1] -0.029 | [2] 0.032 | [3] -0.032 | [4] 0.033 | [5] 0.088 | [6] 0.017 | [7] -0.06 | [8] 0.033 | [9] -0.002 | [10] -0.014 | [11] 0.029 | [12] 0.069 | [13] -0.027 | [14] 0.046 | [15] -0.044 | [16] -0.085 | [17] 0.033 | [18] -0.002 | [19] -0.03 | [20] 0.051

SLC5A3 (UniProt P53794)
inactive: [1] 0.008 | [2] 0.02 | [3] 0.081 | [4] -0.016 | [5] -0.052 | [6] -0.012 | [7] -0.03 | [8] -0.056 | [9] 0.016 | [10] 0.042 | [11] 0.176 | [12] 0.019 | [13] -0.018 | [14] 0.049 | [15] 0.06 | [16] -0.047 | [17] -0.016 | [18] -0.01 | [19] -0.028 | [20] 0.122

SLC25A25 isoform 3 (UniProt Q6KCM7)
inactive: [1] 0.017 | [2] 0.046 | [3] 0.009 | [4] 0.024 | [5] -0.043 | [6] 0.017 | [7] 0.003 | [8] -0.057 | [9] -0.038 | [10] -0.009 | [11] 0.052 | [12] 0.007 | [13] -0.022 | [14] 0.007 | [15] 0.026 | [16] -0.027 | [17] -0.055 | [18] -0.013 | [19] -0.027 | [20] 0.054

SLC7A11 (UniProt Q9UPY5)
inactive: [1] -0.042 | [2] -0.014 | [3] 0.046 | [4] 0.013 | [5] 0.013 | [6] 0.036 | [7] -0.013 | [8] -0.035 | [9] 0.002 | [10] -0.002 | [11] -0.052 | [12] -0.005 | [13] 0 | [14] -0.039 | [15] 0 | [16] -0.033 | [17] 0.009 | [18] -0.05 | [19] -0.026 | [20] 0.082

SLC39A10 (UniProt Q9ULF5)
inactive: [1] -0.009 | [2] 0.012 | [3] -0.046 | [4] -0.033 | [5] -0.007 | [6] 0.019 | [7] -0.047 | [8] 0.012 | [9] -0.027 | [10] 0.007 | [11] 0.151 | [12] 0.083 | [13] -0.062 | [14] 0.023 | [15] -0.007 | [16] -0.019 | [17] -0.053 | [18] 0.113 | [19] -0.061 | [20] 0.124

SLC25A32 (UniProt Q9H2D1)
inactive: [1] 0.025 | [2] 0.038 | [3] 0.013 | [4] -0.011 | [5] 0.032 | [6] -0.029 | [7] -0.017 | [8] -0.09 | [9] 0.013 | [10] -0.017 | [11] 0.053 | [12] 0.043 | [13] -0.051 | [14] -0.069 | [15] -0.001 | [16] -0.006 | [17] -0.027 | [18] 0.032 | [19] -0.077 | [20] 0.052
